Experimental data from US7238668B1, “Inhibition of lymphocyte adherence with CS-1-peptides and fragments thereof” (Fred Hutchinson Cancer Research Center, priority 1989, dated 2007).
These are yes or no findings as the source states them, for the method shown. Binding can be weak; no strength is given.

What follows are binders tested against integrin receptor α4β1 (human) (assay: peptide inhibition of lymphocyte adhesion to fibronectin (column Inhibition)).

Binder	binding
DELPQLVTLPHPNLHGPEILDVPST (Free peptide; also called peptide 344; synthetic CS-1) [CS-1 peptide]	binds
LHGPEILDVPST (also called CS-1-B12) [B12 peptide]	binds
GPEILDVPST (also called peptide 354) [GPEILDVPST peptide]	binds
